Test results: PMC6286387, “Physical and thermodynamic characterization of the rice gibberellin receptor/gibberellin/DELLA protein complex” (Scientific Reports, 2018)
No constants are given. Whether binding was seen depends on the method and setting.

The chains behind the UniProt entries cited, without tags or fusion partners. Where a name states a change or a piece, a line headed by the entry shows the natural chain unless it says otherwise.
UniProt Q7G7J6: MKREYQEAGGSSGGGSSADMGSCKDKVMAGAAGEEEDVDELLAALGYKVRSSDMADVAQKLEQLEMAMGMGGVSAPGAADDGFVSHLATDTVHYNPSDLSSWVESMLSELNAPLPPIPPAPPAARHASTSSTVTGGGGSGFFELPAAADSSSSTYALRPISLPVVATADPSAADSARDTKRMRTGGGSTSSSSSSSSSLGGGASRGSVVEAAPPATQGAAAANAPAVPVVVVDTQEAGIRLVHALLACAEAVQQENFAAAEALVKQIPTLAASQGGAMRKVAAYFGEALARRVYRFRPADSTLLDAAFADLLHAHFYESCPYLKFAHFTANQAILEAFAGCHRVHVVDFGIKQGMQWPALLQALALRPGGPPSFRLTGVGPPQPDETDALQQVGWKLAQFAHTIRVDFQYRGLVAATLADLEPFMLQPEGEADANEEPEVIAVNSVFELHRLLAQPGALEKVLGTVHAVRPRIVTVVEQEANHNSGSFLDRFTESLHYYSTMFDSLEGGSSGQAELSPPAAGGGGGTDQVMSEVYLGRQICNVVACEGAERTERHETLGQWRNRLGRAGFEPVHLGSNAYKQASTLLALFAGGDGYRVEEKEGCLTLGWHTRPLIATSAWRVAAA

Target: SLR1(M28-A112) ΔTVHYNP(L93-E104) (rice (Oryza sativa)) (UniProt Q7G7J6)
Experiment: ITC; 10 μl aliquants of 400 μM OsGID1/GA3 into 1.4482 ml of 50 μM SLR1 variant, 30 °C, 20 mM sodium phosphate (pH 7.5), 150 mM NaCl, 2.0 mM β-ME, 0.1 mM GA3; both purified

B1: OsGID1 (rice gibberellin receptor GID1), Trx-free, used as the OsGID1/GA3 complex (receptor, rice (Oryza sativa), UniProt Q6L545 1-354, looked up)
chain: MAGSDEVNRNECKTVVPLHTWVLISNFKLSYNILRRADGTFERDLGEYLDRRVPANARPLEGVSSFDHIIDQSVGLEVRIYRAAAEGDAEEGAAAVTRPILEFLTDAPAAEPFPVIIFFHGGSFVHSSASSTIYDSLCRRFVKLSKGVVVSVNYRRAPEHRYPCAYDDGWTALKWVMSQPFMRSGGDAQARVFLSGDSSGGNIAHHVAVRAADEGVKVCGNILLNAMFGGTERTESERRLDGKYFVTLQDRDWYWKAYLPEDADRDHPACNPFGPNGRRLGGLPFAKSLIIVSGLDLTCDRQLAYADALREDGHHVKVVQCENATVGFYLLPNTVHYHEVMEEISDFLNANLYY
notes: Gibberellin receptor GID1 of rice (Oryza sativa); theoretical MW of the dimer printed as 79.2 kDa; The printed mass (39.6 kDa a monomer) fits the whole protein; source: recombinant, purified
binding: no binding (tested: 50 μM SLR1 mutants and 400 μM OsGID1/GA3)
